In paper doi:10.1101/553073:
No constants are given. Whether binding was seen depends on the method and setting. A result given as binding can be weak or reduced; the word gives no strength. Where a sequence is shown, tags or fusion partners need not be part of it.

Target: T1, FtsZ, bacterial two-hybrid fusion (Anabaena sp. PCC 7120) (UniProt P45482)
T1 sequence: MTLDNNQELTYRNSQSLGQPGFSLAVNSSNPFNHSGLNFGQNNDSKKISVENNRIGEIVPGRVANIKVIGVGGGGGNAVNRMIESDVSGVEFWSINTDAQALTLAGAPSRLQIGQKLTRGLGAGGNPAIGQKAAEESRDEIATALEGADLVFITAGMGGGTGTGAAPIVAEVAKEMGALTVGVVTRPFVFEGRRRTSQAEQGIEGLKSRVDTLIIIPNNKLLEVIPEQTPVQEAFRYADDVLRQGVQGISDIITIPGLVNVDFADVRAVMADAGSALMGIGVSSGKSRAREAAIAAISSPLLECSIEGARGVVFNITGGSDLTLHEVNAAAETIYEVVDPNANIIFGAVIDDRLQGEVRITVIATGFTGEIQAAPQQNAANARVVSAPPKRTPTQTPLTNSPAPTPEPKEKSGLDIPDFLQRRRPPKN
Test: two-hybrid

CeaR (All2460), bacterial two-hybrid fusion (Anabaena sp. PCC 7120)
binding: binds weakly
